Data as given in article PMC4139307, “Transforming Growth Factor-β1 Signaling Represses Testicular Steroidogenesis through Cross-Talk with Orphan Nuclear Receptor Nur77”.
These are yes or no findings as the source states them, for the method shown. Binding seen in cells or lysates may run through a third protein. Some results given as binding are weak or reduced against the parent protein; the word gives no strength.

Protein sequences, listed by entry. Tags and fused reporters are not part of them. Lines headed by an entry give the natural chain unless they say otherwise; changes in a name come on top. Residues count along the entry.
UniProt P12813: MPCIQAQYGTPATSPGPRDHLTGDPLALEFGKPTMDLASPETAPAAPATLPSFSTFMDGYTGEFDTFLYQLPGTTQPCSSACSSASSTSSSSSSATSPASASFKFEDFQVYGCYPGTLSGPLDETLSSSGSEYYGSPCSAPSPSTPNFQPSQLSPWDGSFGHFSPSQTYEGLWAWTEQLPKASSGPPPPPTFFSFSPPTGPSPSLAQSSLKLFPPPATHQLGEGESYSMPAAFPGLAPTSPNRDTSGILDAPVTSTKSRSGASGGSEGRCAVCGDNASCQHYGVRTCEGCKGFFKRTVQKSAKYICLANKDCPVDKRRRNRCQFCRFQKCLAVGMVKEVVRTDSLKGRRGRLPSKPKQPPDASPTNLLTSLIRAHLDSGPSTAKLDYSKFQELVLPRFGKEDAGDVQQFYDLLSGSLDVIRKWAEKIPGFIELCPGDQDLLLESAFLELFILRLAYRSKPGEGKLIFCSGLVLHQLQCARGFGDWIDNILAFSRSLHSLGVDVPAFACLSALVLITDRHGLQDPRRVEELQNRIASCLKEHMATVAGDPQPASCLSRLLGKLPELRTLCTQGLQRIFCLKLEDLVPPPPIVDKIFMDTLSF
UniProt P84022, residues 10-136: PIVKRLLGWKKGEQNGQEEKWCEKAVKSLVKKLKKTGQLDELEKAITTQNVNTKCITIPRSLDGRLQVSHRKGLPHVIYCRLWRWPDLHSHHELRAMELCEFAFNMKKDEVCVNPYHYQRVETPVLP

Target: GST-Nur77 fusion protein (full-length Nur77) (UniProt P12813)
Assay: pull-down; GST fusion proteins immobilised on glutathione-Sepharose-4B beads, incubated with [35S] methionine-labeled in vitro translated proteins in GST binding buffer (20 mM Tris pH 7.9, 150 mM NaCl, 10% glycerol, 0.05% NP-40, 5 mM MgCl2, 0.5 mM EDTA, 1 mM dithiothreitol, 1.5% BSA) overnight at 4°C; SDS-PAGE and autoradiography; only the target purified

## [35S] methionine-labeled Smad3 MH1 mutant (from UniProt P84022 10-136) (domain or fragment)
  binding: binds
